Results: patent US8815523B2, “Method for live-cell activity assay” (Korea Institute of Science and Technology, priority 2010, dated 2014)
At least one structure is not confirmed: it was looked up by name or label, or the drawing left a doubt.

Tested on: intracellular protein kinase A
Test: Nanowire sandwich assay of intracellular protein kinase A activity, MALDI-TOF of substrate peptide
Type: cell-based
Conditions: 30 μM Forskolin and phosphatase inhibitor cocktail

## C=C[C@@]1(C)CC(=O)[C@]2(O)[C@@]3(C)[C@@H](O)CCC(C)(C)[C@@H]3[C@H](O)[C@H](OC(C)=O)[C@@]2(C)O1 [Forskolin]
20 minutes, FIG. 9D
  phosphorylation of protein kinase A substrate peptide (mass peak of 1703 dalton): Production of a mass peak of 1703 dalton is confirmed
30 minutes, FIG. 9C
  change in protein kinase A substrate peptide (MALDI-TOF): does not cause any change in substrate peptides
